Values from PubChem BioAssay AID1259254 (NCATS, 2017)
The deposit covers about 59,000 reagents; shown is an unselected part. About 1,550 of all reagents (2.6%) count as active. 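G2 share is only a proxy for re-replication; each gene was hit by three separate siRNAs, and active genes were retested.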 Reagents against one gene are numbered here. Not all columns of the deposit are shown. No sequences are given here. Not stated in the record: the amount of reagent.

Purpose: 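Gene knock-downs that lead to re-replication, shown by excess G2 DNA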 (primary screen)
System: human HCT116 colorectal cancer cells
Reagent: single siRNA against human genes
Time to read-out: 3 days
Measured: 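Nuclei stained with Hoechst and imaged; cell-cycle phase assigned by DNA content; G2 share scaled per plate, non-targeting siRNA 0%, GMNN siRNA 100%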
Direction: G2 robust z-score: higher = more G2 cells, more excess DNA replication
Rule for the call: 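Active siRNAs have a G2 robust z of 5 or more median absolute deviations over the median, which in these data means about 38% or higher of GMNN control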

UCN3 #1 gave G2 robust z-score 1.03; inactive. For UCN3 #2, the entry reads G2 robust z-score -0.683; inactive. UCN3 #3 gave G2 robust z-score 1.61; inactive. GKN1 #1 showed G2 robust z-score 1.55; inactive. GKN1 #2 showed G2 robust z-score 0.585; inactive. For GKN1 #3 the deposit lists G2 robust z-score -0.765; inactive.

Records above whose target name begins with U or u (3):
UCN3 #1 — G2 robust z-score: 1.03; activity call: inactive
UCN3 #2 — G2 robust z-score: -0.683; activity call: inactive
UCN3 #3 — G2 robust z-score: 1.61; activity call: inactive

Additional entries follow:
With knock-down of MYOM1 #1 the results were G2 robust z-score -0.209; inactive. For MYOM1 #2, the values are G2 robust z-score -0.0857; inactive. For MYOM1 #3, the entry reads G2 robust z-score 2.99; inactive. With knock-down of CASTOR1 #1, the record shows G2 robust z-score -0.56; inactive. After knock-down of CASTOR1 #2 the results were G2 robust z-score 1.93; inactive. CASTOR1 #3 showed G2 robust z-score 1.77; inactive.

Silencing of BMP2 #1 resulted in: G2 robust z-score 0.853; inactive. Knock-down of BMP2 #2 gave: G2 robust z-score 1.85; inactive. BMP2 #3 scored G2 robust z-score -0.283; inactive. After knock-down of CUL1 #1 the results were G2 robust z-score 2.48; inactive. CUL1 #2 showed G2 robust z-score 8.18; active. Against CUL1 #3 the deposit lists G2 robust z-score 8.15; active.
